Reference: PubChem BioAssay AID504834 (National Center for Advancing Translational Sciences (NCATS), 2011)
Hit rate of the full screen: of about 320,000 compounds, about 22,000 (6.9%) were called active. Inconclusive means that the source gave no clear call. Such entries were picked first, then a sample of the others. The call rests on the fitted dose curve; in most records, active means well fitted inhibition curve with a large enough effect; inconclusive means small, poorly fitted or top-dose-only effect, or another doubt; inactive means no such curve, though single readings can be large or run the other way. A potency beside an inconclusive call is a rough fit, not a confirmed value.

Assay: Primary qHTS for delayed death inhibitors of the malarial parasite plastid, 96 hour incubation
Details: P. falciparum luciferase reporter growth; series mostly up to 28.7 µM; activity change, negative = inhibition: at the top concentration
How it was run: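 Parasite growth measured via integrated firefly luciferase reporter in P. falciparum. Infected erythrocytes at 2% hematocrit, 0.05% parasitemia final were treated 96 hours at 37 C under 5% CO2, and luminescence was read.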
On the % scale 0 is the no-effect control and ±100 the full control effect; potency means the concentration at half of the fitted maximal effect.

Row | Structure (SMILES) | Potency | activity change, negative = inhibition
1 | Cc1ccc(Cn2c(=N)n(CC(O)COc3ccccc3)c3ccccc32)cc1 (configuration not stated) | active: 1.65 µM | 
2 | CC(NC(=S)NCCN1CCOCC1)C12CC3CC(CC(C3)C1)C2 (configuration not stated) | inconclusive: 16.5 µM [inhibitor, single point] | 
3 | CN(CC(=O)O)S(=O)(=O)c1ccc2c(c1)NC(=O)CC(=O)N2 |  | inactive: 8.03%
4 | Cc1ccc2c(c1)N(C(=O)CCC(=O)NCCCN1CCOCC1)CCO2 |  | inactive: 48.7%
5 | O=C(Nc1ccc2c(c1)OCO2)C1CCCCN1S(=O)(=O)c1ccc(F)cc1 (configuration not stated) | active: 9.28 µM | 
6 | O=C(COC(=O)c1cccc(S(=O)(=O)N2CCOCC2)c1)Nc1ccc2c(c1)OCO2 | inconclusive: 18.5 µM [inhibitor, single point] | 
7 | CC(=O)Oc1ccc(N2C(=O)C3C4C=CC(CC4)C3C2=O)cc1[N+](=O)[O-] (configuration not stated) | inconclusive: 7.38 µM [inhibitor, partial curve] | 
8 | CC(Oc1ccc(F)cc1F)C(=O)NNC(=S)NCC1CCCO1 (configuration not stated) | inconclusive: 18.5 µM [inhibitor, single point] | 
9 | CCCOC(=O)CSC1=C(C#N)C(c2ccc3c(c2)OCO3)CC(=O)N1 (configuration not stated) | inconclusive: 0.0047 µM [inhibitor, full curve, poor fit] | 
10 | CN1C(=S)SC(N(O)C(=O)Nc2ccc(Cl)c(Cl)c2)C1(C)C (configuration not stated) | inconclusive: 10.4 µM [inhibitor, single point] | 
11 | Cc1c(C(=O)Nc2cccc(Cl)c2)c2ccccn2c1CCc1ccncc1 | inconclusive: 2.62 µM [inhibitor, single point] | 
12 | Cc1cc(C)c(S(=O)(=O)NCC(=O)NCc2cc(=O)n(C)c(=O)n2C)c(C)c1 |  | inactive: -16.9%
13 | COc1ccc2cc(OCC(=O)NNC(=O)Nc3ccc(F)cc3)ccc2c1 | inconclusive: 9.28 µM [inhibitor, partial curve] | 
14 | Cc1noc(C)c1C(=O)Nc1ccc(S(=O)(=O)N2CCC(C)CC2)cc1 | inconclusive: 18.5 µM [inhibitor, single point] | 
15 | Cc1noc(C)c1S(=O)(=O)Nc1ccc(C#N)cc1 |  | inactive: 22%
16 | COc1ccc(C(=O)N2CCSCC2)cc1OC1CCN(C(C)=O)CC1 |  | inactive: 8.45%
17 | COCCn1c(SCc2ccc(C(=O)OC)o2)nc2ccccc2c1=O |  | inactive: -2.23%
18 | CS(=O)(=O)N(CC(=O)NC1CC2CCC1C2)c1cccc(C(F)(F)F)c1 (configuration not stated) | inconclusive: 18.5 µM [inhibitor, single point] | 
19 | COc1cccc(CN(CC(=O)NC2CCCC2)C(=O)CCC(=O)Nc2cc(C)on2)c1 | inconclusive: 11.7 µM [inhibitor, partial curve] | 
20 | Cc1ccccc1-c1nc(CS(=O)(=O)CC(=O)Nc2cc(F)ccc2F)c(C)o1 | inconclusive: 18.5 µM [inhibitor, single point] | 
21 | COC(=O)c1ccc(NC(=O)NS(=O)(=O)c2ccc(C)cc2)cc1 |  | inactive: -8.27%
22 | CN(C(=O)c1cccc(COc2ccc(Cl)cc2Cl)c1)c1ccccc1 | inconclusive: 16.5 µM [inhibitor, single point] | 
23 | CCOC(=O)N1CCN(C(=O)C2CCN(S(=O)(=O)c3cc(Cl)ccc3Cl)CC2)CC1 |  | inactive: 28.7%

Row | Structure (SMILES) | Potency | activity change, negative = inhibition
24 | COc1ccc(-c2cc3ncc(C(C)=O)c(C)n3n2)cc1 | inconclusive: 0.928 µM [inhibitor, full curve, poor fit] | 
25 | CCCC(=O)Nc1nnc(S(=O)(=O)N(CC(C)C)c2ccccc2)s1 |  | inactive: 37.1%
26 | COCC(C)n1c(C)cc(C(=O)CN2C(=O)NC3(CCCCC3C)C2=O)c1C (configuration not stated) | inconclusive: 8.28 µM [inhibitor, single point] | 
27 | CCOc1ccc(NC(=O)CCCn2c(=S)[nH]c3ccsc3c2=O)cc1 | inconclusive: 18.5 µM [inhibitor, single point] | 
28 | COc1cc(CN2CCN(c3ccc(C)cc3)CC2)cc([N+](=O)[O-])c1O |  | inactive: 34.7%
29 | C[N+]1(CCCCCCC(=O)/C=N/O)CCCCCC1 | inconclusive: 10.4 µM [inhibitor, single point] | 
30 | O=S(=O)(Nc1ccc(F)cc1)c1ccc(NS(=O)(=O)c2cccs2)cc1 | inconclusive: 4.15 µM [inhibitor, single point] | 
31 | O=C(Cc1ccc(Cl)cc1)Nc1cccc2ncccc12 | inconclusive: 8.28 µM [inhibitor, partial curve] | 
32 | CCCCCC1=CCC/C1=N\NC(=O)c1ccc2c(c1)OCO2 | inconclusive: 9.28 µM [inhibitor, partial curve] | 
33 | O=C1CNC(=S)N1CCCn1ccnc1 | inconclusive: 0.828 µM [inhibitor, partial curve, poor fit] | 
34 | CNC(=O)NC(=O)COC(=O)c1ccc(-n2c(C)ccc2C)cc1 | inconclusive: 18.5 µM [inhibitor, single point] | 
35 | COc1ccc(NC(=O)Nc2ccc3oc(C)nc3c2)cc1 | inconclusive: 3.29 µM [inhibitor, partial curve] | 
36 | CN1CCN(CCC(=O)Nc2cccc(F)c2)CC1 | inconclusive: 13.1 µM [inhibitor, single point] | 
37 | O=c1cc(N2CCc3ccccc32)[nH]c(=O)n1-c1ccccc1 | inconclusive: 5.22 µM [inhibitor, full curve, poor fit] | 
38 | O=c1[nH]c(=O)n([C@H]2C[C@H](O)[C@@H](CO)O2)cc1C(F)(F)F | inconclusive: 16.5 µM [inhibitor, single point] | 
39 | Fc1cccc(-c2cc3nc4c(c(N5CCOCC5)n3n2)CCCC4)c1 | inconclusive: 2.33 µM [inhibitor, partial curve, poor fit] | 
40 | CCOC(=O)c1c(NC(=O)COC(=O)c2cnc(C)cn2)sc(C(=O)N(C)C)c1C |  | inactive: -4.77%
41 | COc1ccc(C(CC(=O)O)NS(=O)(=O)c2ccc(C)cc2)cc1OC (configuration not stated) | inconclusive: 9.28 µM [inhibitor, single point] | 
42 | CSc1ccc(COC(=O)c2cc([N+](=O)[O-])ccc2N2CCOCC2)cc1 | inconclusive: 18.5 µM [inhibitor, single point] | 
43 | COc1ccc(C2C(C#N)=C(N)Oc3cc(O)ccc32)cc1OC (configuration not stated) | inconclusive: 5.86 µM [inhibitor, partial curve] | 
44 | CCOC(=O)c1c(-c2ccco2)csc1NC(=O)COC(=O)c1cnc(C)cn1 |  | inactive: -0.366%
45 | Cc1ccc2c(=O)n3c(nc2c1)C(Cc1ccccc1)NC(=O)c1ccc(Cl)cc1-3 (configuration not stated) | inconclusive: 16.5 µM [inhibitor, single point] | 
46 | COc1ccc(Cc2nc3ccccc3n2CC(=O)N/N=C/c2ccc(O)cc2)cc1OC | inconclusive: 18.5 µM [inhibitor, single point] | 

Row | Structure (SMILES) | Potency | activity change, negative = inhibition
47 | CCCOc1nc2c(c(=O)n(C)c(=O)n2C)n1CC | active: 2.08 µM | 
48 | O=S(=O)(c1ccccc1)N1N=C(c2ccc(Cl)cc2)CC1c1ccco1 (configuration not stated) | inconclusive: 5.22 µM [inhibitor, partial curve, poor fit] | 
49 | N#Cc1ccc(OCC(O)CN2CCC(C(O)(c3ccccc3)c3ccccc3)CC2)cc1 (configuration not stated) | inconclusive: 18.5 µM [inhibitor, single point] | 
50 | Cc1cc(C(=O)CCl)c(C)n1CC1COc2ccccc2O1 (configuration not stated) | inconclusive: 16.5 µM [inhibitor, single point] | 
51 | CCOC(=O)Cn1c(=O)oc2ccc(C)cc21 | inconclusive: 18.5 µM [inhibitor, single point] | 
52 | Cc1ccc(C(NC(=O)c2ccccc2S(C)(=O)=O)c2ccccc2)cc1 (configuration not stated) | inconclusive: 2.94 µM [inhibitor, full curve] | 
53 | CC(=O)N1CCN=C1SCc1ccc(C(F)(F)F)cc1 | inconclusive: 9.28 µM [inhibitor, single point] | 
54 | Cc1c(CNC(=O)c2cnn3c2NC(c2ccccc2)CC3C(F)(F)F)cnn1C (configuration not stated) | inconclusive: 1.31 µM [inhibitor, partial curve] | 
55 | CC1CCCCC1NC(=S)NC(=O)c1sc2ccccc2c1Cl (configuration not stated) | inconclusive: 20.8 µM [inhibitor, single point] | 
56 | CCOC(=O)c1sc(=S)n(C)c1NC(=O)c1cccc(Br)c1 | inconclusive: 10.4 µM [inhibitor, single point] | 
57 | O=C(c1cc2ccccc2o1)N1CCN(c2cccc(C(F)(F)F)c2)CC1 | inconclusive: 18.5 µM [inhibitor, single point] | 
58 | CCCCC(C(=O)O)C(C)CC(=O)Nc1nncs1 (configuration not stated) | inconclusive: 0.0208 µM [inhibitor, full curve, poor fit] | 
59 | CCN(Cc1ccccc1)C(=O)CSc1n[nH]c(N)n1 | inconclusive: 2.62 µM [inhibitor, partial curve, poor fit] | 
60 | Cc1onc(-c2c(F)cccc2Cl)c1C(=O)NC1=NCCS1 | inconclusive: 18.5 µM [inhibitor, single point] | 
61 | CCN1CCN(C2=C(Cl)C(=O)N(Cc3ccccc3)C2=O)CC1 | inconclusive: 8.28 µM [inhibitor, single point] | 
62 | CC(C)N1CCC(N2CCN(C3CCCCCC3)CC2CCO)CC1 (configuration not stated) | inconclusive: 14.7 µM [inhibitor, single point] | 
63 | COc1cc2c(cc1OC)C1(CCCCC1)CN(C)C2 | inconclusive: 18.5 µM [inhibitor, single point] | 
64 | COCCCNC(=O)CNC(=O)c1nn(-c2ccc(OC)c(Cl)c2)c(=O)c2ccccc12 |  | inactive: 0%
65 | O=C(Nc1nc2c(Br)cc(Br)cc2c(=O)s1)c1ccco1 |  | inactive: 15.8%
66 | COc1ccccc1N1CCN(S(=O)(=O)CCNC(=O)C2CC2)CC1 |  | inactive: 8.38%
67 | CCOc1cccc2sc(N(CCCN(C)C)C(=O)c3ccc(S(=O)(=O)N4CCCCCC4)cc3)nc12 | inconclusive: 11.7 µM [inhibitor, partial curve, poor fit] | 

Some values from the results shown:
Entry of COc1cc2c(cc1OC)C1(CCCCC1)CN(C)C2 under Potency: inconclusive: 18.5 µM [inhibitor, single point]
Entry of CCOC(=O)N1CCN(C(=O)C2CCN(S(=O)(=O)c3cc(Cl)ccc3Cl)CC2)CC1 under activity change, negative = inhibition: inactive: 28.7%
Entry of Cc1noc(C)c1S(=O)(=O)Nc1ccc(C#N)cc1 under activity change, negative = inhibition: inactive: 22%
Entry of CCCCC(C(=O)O)C(C)CC(=O)Nc1nncs1 (configuration not stated) under Potency: inconclusive: 0.0208 µM [inhibitor, full curve, poor fit]
Entry of COCCn1c(SCc2ccc(C(=O)OC)o2)nc2ccccc2c1=O under activity change, negative = inhibition: inactive: -2.23%
